Laboratory results published in PubChem BioAssay (NCATS).
Inconclusive means that the source gave no clear call. Such entries were picked first, then a sample of the others. Potencies of inconclusive entries are doubtful fits and often do not repeat. Calls of active or inactive are those of the source. Calls come from the whole dose curve; as a rule, active = well fitted cell-killing curve with a large enough effect; inconclusive = small, poorly fitted or top-dose-only effect, or effect the other way; inactive = no such curve, though single readings can be large or run the other way.

Key:
[1] = Quantitative High-Throughput drug screen in 47 multiple myeloma cell lines against the NCATS MIPE library collection: L363_DSMZ cell viability assay (AID 1918984); conditions: L363 myeloma viability, CellTiter-Glo ATP luminescence, 48 h; viability (% of control): at 45.8 µM (top of the series); note: nearly all actives have a fitted effect of over 40% in size
Summary of the method: (§1)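 MIPE 4.0 approved/investigational drugs; 500 cells/well; 48 h 37 °C humidified 5% CO2; CTG luminescence readout; DMSO = 100%, media = 0% viability.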

[2] = Quantitative High-Throughput drug screen in 47 multiple myeloma cell lines against the NCATS MIPE library collection: KMS34_JCRB cell viability assay (AID 1918985); conditions: KMS34 myeloma viability, CellTiter-Glo ATP luminescence, 48 h; viability, percent of control: at 45.8 µM (top of the series); note: nearly all actives have a fitted effect of over 40% in size
Summary of the method: as §1

[3] = Quantitative High-Throughput drug screen in 47 multiple myeloma cell lines against the NCATS MIPE library collection: OCIMY7_PLB cell viability assay (AID 1918987); conditions: OCI-MY7 myeloma viability, CellTiter-Glo ATP, 48 h; viability (% of DMSO): at 45.8 µM (top of the series); note: nearly all actives have a fitted effect of over 65% in size
Summary of the method: as §1

[4] = Quantitative High-Throughput drug screen in 47 multiple myeloma cell lines against the NCATS MIPE library collection: OCIMY5_PLB cell viability assay (AID 1918988); conditions: OCI-MY5 myeloma viability, ATP luminescence, 48 h; viability, % of control: at 45.8 µM (top of the series); note: nearly all actives have a fitted effect of over 65% in size;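 for viability, % of control: 100% = DMSO-treated wells and 0% = wells with media alone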
Summary of the method: as §1

[5] = Quantitative High-Throughput drug screen in 47 multiple myeloma cell lines against the NCATS MIPE library collection: OPM1_PLB cell viability assay (AID 1918989); conditions: CellTiter-Glo, 48 h; series mostly up to 45.8 µM; note: nearly all actives have a fitted effect of over 40% in size
Summary of the method: as §1

[6] = Quantitative High-Throughput drug screen in 47 multiple myeloma cell lines against the NCATS MIPE library collection: SKMM1_PLB cell viability assay (AID 1919863); conditions: SKMM1 myeloma viability, CellTiter-Glo ATP, 48 h; viability: hits give low values; note: nearly all actives have a fitted effect of over 35% in size
Summary of the method: as §1

[7] = Quantitative High-Throughput drug screen in 47 multiple myeloma cell lines against the NCATS MIPE library collection: U266_ATCC cell viability assay (AID 1919864); conditions: U266 myeloma viability, CellTiter-Glo ATP luminescence, 48 h; series mostly up to 45.8 µM; note: nearly all actives have a fitted effect of over 35% in size
Summary of the method: as §1

[8] = Quantitative High-Throughput drug screen in 47 multiple myeloma cell lines against the NCATS MIPE library collection: XG6_PLB cell viability assay (AID 1919865); conditions: XG6 myeloma viability, CellTiter-Glo ATP luminescence, 48 h; viability (% of control): at 45.8 µM (top of the series); note: nearly all actives have a fitted effect of over 40% in size
Summary of the method: as §1

[9] = Quantitative High-Throughput drug screen in 47 multiple myeloma cell lines against the NCATS MIPE library collection: VP6_DJ cell viability assay (AID 1919867); conditions: ATP luminescence, 48 h; viability (% of DMSO): at 45.8 µM (top of the series); note: nearly all actives have a fitted effect of over 40% in size;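 for viability (% of DMSO): 100% = DMSO-only wells and 0% = wells with media alone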
Summary of the method: as §1

[10] = Quantitative High-Throughput drug screen in 47 multiple myeloma cell lines against the NCATS MIPE library collection: XG1_PLB cell viability assay (AID 1919866); conditions: CellTiter-Glo ATP, 48 h; series mostly up to 45.8 µM; note: nearly all actives have a fitted effect of over 35% in size
Summary of the method: as §1
Potency is the fitted concentration of half-maximal effect.

Compound	Potency [1]	Potency [2]	Potency [3]	Potency [4]	Potency [5]	viability [6]	Potency [7]	Potency [8]	Potency [9]	Potency [6]	Potency [10]	viability (% of control) [1]
Cc1ncc([N+](=O)[O-])n1CC(C)O (centres undefined)	inconclusive: 0.469 µM [rising, full curve, poor fit]	inconclusive: 0.264 µM [rising, full curve, poor fit]	inconclusive: 8.33 µM [cytotoxic, partial curve, poor fit]	inconclusive: 2.09 µM [rising, full curve, poor fit]	inconclusive: 37.2 µM [cytotoxic, single point]	inactive: 126%	inconclusive: 33.2 µM [cytotoxic, single point]	inconclusive: 18.7 µM [cytotoxic, partial curve]				
NC(=O)c1ccc(I)c([N+](=O)[O-])c1	inconclusive: 2.64 µM [cytotoxic, full curve, poor fit]	inactive	inconclusive: 18.7 µM [cytotoxic, partial curve, poor fit]	inconclusive: 10.5 µM [cytotoxic, partial curve, poor fit]	active: 23.5 µM	inactive: 102%	inconclusive: 18.7 µM [cytotoxic, partial curve]	inconclusive: 26.4 µM [cytotoxic, single point]	inconclusive: 33.2 µM [cytotoxic, single point]			
CCCCC(C=O)NC(=O)C(CC(C)C)NC(=O)OCc1ccccc1 (centres undefined)	inactive	inconclusive: 5.26 µM [cytotoxic, partial curve, poor fit]	inconclusive: 16.6 µM [cytotoxic, partial curve, poor fit]	inconclusive: 33.2 µM [cytotoxic, partial curve, poor fit]	inconclusive: 7.43 µM [cytotoxic, partial curve, poor fit]		inconclusive: 14.8 µM [cytotoxic, partial curve, poor fit]	inactive	inactive	inconclusive: 33.2 µM [cytotoxic, partial curve, poor fit]		
Cc1nc2n(c(=O)c1CCN1CCC(c3noc4cc(F)ccc34)CC1)CCCC2	inconclusive: 37.2 µM [cytotoxic, single point]	inactive	inconclusive: 0.0935 µM [cytotoxic, full curve, poor fit]	inconclusive: 0.743 µM [rising, full curve, poor fit]	inconclusive: 0.935 µM [rising, full curve, poor fit]	inactive: 134%	inconclusive: 0.0019 µM [rising, full curve, poor fit]	inactive				
COc1ccc2cccc(CCNC(C)=O)c2c1	inactive	inconclusive: 18.7 µM [cytotoxic, single point]	inactive	inconclusive: 0.0372 µM [cytotoxic, full curve, poor fit]	inconclusive: 0.0093 µM [cytotoxic, full curve, poor fit]	inactive: 129%	inconclusive: 37.2 µM [cytotoxic, single point]					
C=CCc1cc(OC)c(O)c(C(=O)NCCO)c1	inconclusive: 8.33 µM [cytotoxic, full curve, poor fit]	inactive	inconclusive: 9.35 µM [cytotoxic, full curve, poor fit]	inactive	inconclusive: 0.001 µM		inactive		inconclusive: 0.0047 µM [rising, full curve]	inconclusive: 9.35 µM [cytotoxic, full curve, poor fit]		
Cc1cc(O)c2c(c1)C(=O)c1cccc(O)c1C2=O	inactive	inactive	inactive	inconclusive: 0.0019 µM [rising, full curve, poor fit]	inactive		inconclusive: 0.0037 µM [rising, full curve, poor fit]	inactive	inconclusive: 0.743 µM [rising, full curve, poor fit]			
COc1cc(NC(=O)c2ccc(-c3ccc(Cl)cc3)o2)cc(OC)c1	inconclusive: 1.87 µM [cytotoxic, partial curve, poor fit]	inconclusive: 0.0935 µM [rising, full curve, poor fit]	active: 3.32 µM	inconclusive: 4.18 µM [cytotoxic, full curve, poor fit]	inconclusive: 37.2 µM [cytotoxic, single point]		active: 1.66 µM					
NCCCCCC(=O)O	inactive	inconclusive: 2.96 µM [cytotoxic, full curve, poor fit]	inconclusive: 0.0013 µM [rising, full curve, poor fit]	inconclusive: 8.33 µM [cytotoxic, partial curve, poor fit]	inactive		inconclusive: 23.5 µM [cytotoxic, partial curve, poor fit]		inconclusive: 0.0166 µM [rising, full curve, poor fit]	inconclusive: 0.148 µM [cytotoxic, full curve, poor fit]		
Cn1cc(-c2ccc3nnc(C(F)(F)c4ccc5ncccc5c4)n3n2)cn1	inconclusive: 16.6 µM [cytotoxic, partial curve, poor fit]	inconclusive: 23.5 µM [cytotoxic, partial curve, poor fit]	inconclusive: 1.05 µM [cytotoxic, full curve, poor fit]	active: 16.6 µM	inconclusive: 18.7 µM [cytotoxic, partial curve, poor fit]		inconclusive: 18.7 µM [cytotoxic, partial curve, poor fit]	inconclusive: 16.6 µM [cytotoxic, partial curve, poor fit]	inconclusive: 1.05 µM [cytotoxic, full curve, poor fit]		inconclusive: 5.26 µM [cytotoxic, partial curve, poor fit]	
CCOc1cc(CC(=O)N[C@@H](CC(C)C)c2ccccc2N2CCCCC2)ccc1C(=O)O	inconclusive: 11.8 µM [rising, partial curve, poor fit]	inactive	inconclusive: 37.2 µM [cytotoxic, partial curve, poor fit]	inconclusive: 23.5 µM [rising, single point]	inconclusive: 18.7 µM [cytotoxic, partial curve, poor fit]	inactive: 138%	inconclusive: 0.0015 µM [rising, full curve, poor fit]		inactive		inactive	
COc1ccc(-c2nc3ccc(C4=NNC(=O)CC4C)cc3[nH]2)cc1 (centres undefined)	inactive	inactive	inconclusive: 33.2 µM [cytotoxic, partial curve, poor fit]	inactive	inconclusive: 23.5 µM [cytotoxic, partial curve, poor fit]		inconclusive: 0.526 µM [rising, partial curve, poor fit]	inactive	inconclusive: 20.9 µM [cytotoxic, single point]		inactive	
CCC(C)N(C)C(=O)c1cc2ccccc2c(-c2ccccc2Cl)n1 (centres undefined)	inconclusive: 18.7 µM [cytotoxic, partial curve, poor fit]	inconclusive: 0.0013 µM [cytotoxic, full curve, poor fit]	inconclusive: 16.6 µM [cytotoxic, partial curve, poor fit]	inconclusive: 13.2 µM [cytotoxic, partial curve, poor fit]	inactive					inconclusive: 0.166 µM [cytotoxic, full curve, poor fit]	active: 5.26 µM	
Nc1ncnc2c1ncn2[C@@H]1O[C@H](CO)C[C@@H]1O	inactive	inconclusive: 18.7 µM [cytotoxic, partial curve]	inactive	inconclusive: 33.2 µM [cytotoxic, single point]	inactive			inactive	inconclusive: 0.0235 µM [rising, full curve, poor fit]			
CON(C)C(=O)N1N=C(c2cc(F)ccc2F)S[C@]1(CCCN)c1ccccc1		inactive	inactive	inactive	inconclusive: 23.5 µM [cytotoxic, partial curve]	inactive: 61.2%		inconclusive: 37.2 µM [cytotoxic, partial curve, poor fit]	inconclusive: 41.8 µM [cytotoxic, single point]		inactive	inconclusive: 19.6% [cytotoxic]
Cc1cc2c(cc1C1(c3ccc(C(=O)O)cn3)CC1)C(C)(C)CCC2(C)C	inactive	inconclusive: 26.4 µM [cytotoxic, single point]	inconclusive: 14.8 µM [cytotoxic, partial curve, poor fit]	inconclusive: 18.7 µM [cytotoxic, partial curve, poor fit]	inconclusive: 0.0059 µM [rising, full curve, poor fit]			inconclusive: 2.35 µM [cytotoxic, partial curve, poor fit]	inconclusive: 0.0053 µM [cytotoxic, full curve, poor fit]	inconclusive: 0.0059 µM [rising, full curve, poor fit]		

A stretch taken from the entries so far, as a working copy:
Compound	Potency [1]	Potency [2]	Potency [3]	Potency [4]	Potency [5]	viability [6]	Potency [7]	Potency [8]	Potency [9]	Potency [6]	Potency [10]	viability (% of control) [1]
CCCCC(C=O)NC(=O)C(CC(C)C)NC(=O)OCc1ccccc1 (centres undefined)	inactive	inconclusive: 5.26 µM [cytotoxic, partial curve, poor fit]	inconclusive: 16.6 µM [cytotoxic, partial curve, poor fit]	inconclusive: 33.2 µM [cytotoxic, partial curve, poor fit]	inconclusive: 7.43 µM [cytotoxic, partial curve, poor fit]		inconclusive: 14.8 µM [cytotoxic, partial curve, poor fit]	inactive	inactive	inconclusive: 33.2 µM [cytotoxic, partial curve, poor fit]		
Cc1nc2n(c(=O)c1CCN1CCC(c3noc4cc(F)ccc34)CC1)CCCC2	inconclusive: 37.2 µM [cytotoxic, single point]	inactive	inconclusive: 0.0935 µM [cytotoxic, full curve, poor fit]	inconclusive: 0.743 µM [rising, full curve, poor fit]	inconclusive: 0.935 µM [rising, full curve, poor fit]	inactive: 134%	inconclusive: 0.0019 µM [rising, full curve, poor fit]	inactive				
